Earlier results, collected in patent US20100168084A1, “Therapeutic compounds and related methods of use” (priority 2008, published 2010).
At least one structure is not confirmed: it was looked up by name or label, or the drawing left a doubt.

System: HDAC
Details: literature statements; cited from earlier work

In the case of `CCC(=O)CCCCC[C@@H]1NC(=O)[C@H]2CCCCN2C(=O)[C@H]([C@@H](C)CC)NC(=O)[C@H](Cc2cn(OC)c3ccccc23)NC1=O` [Apicidin, apicidin], the “inhibition of HDAC” value is listed as “inhibits HDAC activity at nanomolar concentrations”.
